PMC10377357 (2023)
These are yes or no findings as the source states them, for the method shown. In cells and extracts the contact can be indirect. Here binding means that the protein was enriched with, or labelled near, the bait; the list need not be complete. For part of these data: No binding means not detected with the bait.

T1: full-length Rps2-TurboID (S. cerevisiae) (UniProt P25443)
T1 sequence: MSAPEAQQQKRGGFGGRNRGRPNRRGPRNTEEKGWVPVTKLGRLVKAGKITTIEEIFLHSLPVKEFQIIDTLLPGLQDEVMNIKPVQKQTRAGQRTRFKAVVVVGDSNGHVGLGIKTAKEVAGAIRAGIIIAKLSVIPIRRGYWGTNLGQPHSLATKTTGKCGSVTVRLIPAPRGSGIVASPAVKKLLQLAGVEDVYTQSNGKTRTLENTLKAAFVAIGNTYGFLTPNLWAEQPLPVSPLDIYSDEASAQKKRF

T2: Rps2(1–145).R95R97K99>A-TurboID (S. cerevisiae) (UniProt P25443)
T2 sequence: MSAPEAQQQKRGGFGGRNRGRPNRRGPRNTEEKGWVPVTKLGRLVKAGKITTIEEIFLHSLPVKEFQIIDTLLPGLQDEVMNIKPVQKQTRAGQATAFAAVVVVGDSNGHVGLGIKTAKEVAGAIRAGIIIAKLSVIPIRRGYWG

T3: Rps2(1–145)-TurboID (S. cerevisiae) (UniProt P25443)
T3 sequence: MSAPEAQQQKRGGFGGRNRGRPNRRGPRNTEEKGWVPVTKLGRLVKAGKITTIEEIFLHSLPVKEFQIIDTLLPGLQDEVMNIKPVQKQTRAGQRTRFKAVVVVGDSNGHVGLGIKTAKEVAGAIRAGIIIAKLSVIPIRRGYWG

T4: full-length Rps2.R95R97K99>A-TurboID (S. cerevisiae) (UniProt P25443)
T4 sequence: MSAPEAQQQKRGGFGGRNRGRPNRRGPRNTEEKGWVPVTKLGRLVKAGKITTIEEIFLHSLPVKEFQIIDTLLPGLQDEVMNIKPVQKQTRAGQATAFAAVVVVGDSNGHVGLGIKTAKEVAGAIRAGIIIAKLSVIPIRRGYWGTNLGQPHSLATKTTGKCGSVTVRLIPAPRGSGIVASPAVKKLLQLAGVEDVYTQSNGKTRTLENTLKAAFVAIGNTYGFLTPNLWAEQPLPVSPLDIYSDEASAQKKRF

T5: full-length Rps2-TurboID (S. cerevisiae), P25443
T5 chain: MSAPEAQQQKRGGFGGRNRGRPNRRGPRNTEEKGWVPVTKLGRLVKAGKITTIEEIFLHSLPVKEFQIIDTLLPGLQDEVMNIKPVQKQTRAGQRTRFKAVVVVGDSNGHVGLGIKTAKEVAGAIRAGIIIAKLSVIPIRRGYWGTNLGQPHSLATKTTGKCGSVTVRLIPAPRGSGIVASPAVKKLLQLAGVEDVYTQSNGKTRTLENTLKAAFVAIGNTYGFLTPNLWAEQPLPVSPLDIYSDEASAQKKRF

B1: Tsr4 (protein, UniProt P25040 1-408)
chain: MSKIEELPPSDTDDHSYSSKPGDVFLAFVDAPVKETDDILVEDSFIGGEPKWLHPDSEPPAELLKCGACKSADNMKLLLQAFSPLDDEQMSAIQQRLGINNMSYINPQDDRVLYVFLCTECQRKGNSVRCIRGVKKNKNVDSLSEKMASTSLEKDFQINPFDLSNNSDSKCNAFSSNPFGGANANPFGADSINSNISQSKDEGKKKESATVSAKTARKLHDLQKDKEYDGNKCFKSCLLYVEEETFKNKKPAHLQLPKNLKIDKEALDLTGDEDLEKDPIKLDPRTEKLSKFLDDDTFQKFQEVVGYNPLQVLRYDLGGKPLLYAETKVDILSTVPRPGYNPSSQRIFEMQLMPKMIFDLEEVVSVDNGMEWGTILVFTDVENYMPEFDEHGVGYVEECVKVQWESRT
B2: Pse1, P32337 1-1089 (protein)
chain: MSALPEEVNRTLLQIVQAFASPDNQIRSVAEKALSEEWITENNIEYLLTFLAEQAAFSQDTTVAALSAVLFRKLALKAPPSSKLMIMSKNITHIRKEVLAQIRSSLLKGFLSERADSIRHKLSDAIAECVQDDLPAWPELLQALIESLKSGNPNFRESSFRILTTVPYLITAVDINSILPIFQSGFTDASDNVKIAAVTAFVGYFKQLPKSEWSKLGILLPSLLNSLPRFLDDGKDDALASVFESLIELVELAPKLFKDMFDQIIQFTDMVIKNKDLEPPARTTALELLTVFSENAPQMCKSNQNYGQTLVMVTLIMMTEVSIDDDDAAEWIESDDTDDEEEVTYDHARQALDRVALKLGGEYLAAPLFQYLQQMITSTEWRERFAAMMALSSAAEGCADVLIGEIPKILDMVIPLINDPHPRVQYGCCNVLGQISTDFSPFIQRTAHDRILPALISKLTSECTSRVQTHAAAALVNFSEFASKDILEPYLDSLLTNLLVLLQSNKLYVQEQALTTIAFIAEAAKNKFIKYYDTLMPLLLNVLKVNNKDNSVLKGKCMECATLIGFAVGKEKFHEHSQELISILVALQNSDIDEDDALRSYLEQSWSRICRILGDDFVPLLPIVIPPLLITAKATQDVGLIEEEEAANFQQYPDWDVVQVQGKHIAIHTSVLDDKVSAMELLQSYATLLRGQFAVYVKEVMEEIALPSLDFYLHDGVRAAGATLIPILLSCLLAATGTQNEELVLLWHKASSKLIGGLMSEPMPEITQVYHNSLVNGIKVMGDNCLSEDQLAAFTKGVSANLTDTYERMQDRHGDGDEYNENIDEEEDFTDEDLLDEINKSIAAVLKTTNGHYLKNLENIWPMINTFLLDNEPILVIFALVVIGDLIQYGGEQTASMKNAFIPKVTECLISPDARIRQAASYIIGVCAQYAPSTYADVCIPTLDTLVQIVDFPGSKLEENRSSTENASAAIAKILYAYNSNIPNVDTYTANWFKTLPTITDKEAASFNYQFLSQLIENNSPIVCAQSNISAVVDSVIQALNERSLTEREGQTVISSVKKLLGFLPSSDAMAIFNRYPADIMEKVHKWFA
B3: Pse1 (protein, UniProt P32337 1-1089)
chain: MSALPEEVNRTLLQIVQAFASPDNQIRSVAEKALSEEWITENNIEYLLTFLAEQAAFSQDTTVAALSAVLFRKLALKAPPSSKLMIMSKNITHIRKEVLAQIRSSLLKGFLSERADSIRHKLSDAIAECVQDDLPAWPELLQALIESLKSGNPNFRESSFRILTTVPYLITAVDINSILPIFQSGFTDASDNVKIAAVTAFVGYFKQLPKSEWSKLGILLPSLLNSLPRFLDDGKDDALASVFESLIELVELAPKLFKDMFDQIIQFTDMVIKNKDLEPPARTTALELLTVFSENAPQMCKSNQNYGQTLVMVTLIMMTEVSIDDDDAAEWIESDDTDDEEEVTYDHARQALDRVALKLGGEYLAAPLFQYLQQMITSTEWRERFAAMMALSSAAEGCADVLIGEIPKILDMVIPLINDPHPRVQYGCCNVLGQISTDFSPFIQRTAHDRILPALISKLTSECTSRVQTHAAAALVNFSEFASKDILEPYLDSLLTNLLVLLQSNKLYVQEQALTTIAFIAEAAKNKFIKYYDTLMPLLLNVLKVNNKDNSVLKGKCMECATLIGFAVGKEKFHEHSQELISILVALQNSDIDEDDALRSYLEQSWSRICRILGDDFVPLLPIVIPPLLITAKATQDVGLIEEEEAANFQQYPDWDVVQVQGKHIAIHTSVLDDKVSAMELLQSYATLLRGQFAVYVKEVMEEIALPSLDFYLHDGVRAAGATLIPILLSCLLAATGTQNEELVLLWHKASSKLIGGLMSEPMPEITQVYHNSLVNGIKVMGDNCLSEDQLAAFTKGVSANLTDTYERMQDRHGDGDEYNENIDEEEDFTDEDLLDEINKSIAAVLKTTNGHYLKNLENIWPMINTFLLDNEPILVIFALVVIGDLIQYGGEQTASMKNAFIPKVTECLISPDARIRQAASYIIGVCAQYAPSTYADVCIPTLDTLVQIVDFPGSKLEENRSSTENASAAIAKILYAYNSNIPNVDTYTANWFKTLPTITDKEAASFNYQFLSQLIENNSPIVCAQSNISAVVDSVIQALNERSLTEREGQTVISSVKKLLGFLPSSDAMAIFNRYPADIMEKVHKWFA

Legend:
Experiment in all cases: proximity labelling; TurboID fused to the C-terminus of the bait, CUP1 promoter, strain YDK11-5A, 500 μM copper sulfate and biotin for 1 h at 30 °C; streptavidin purification of biotinylated proteins, LC-MS/MS; enrichment against GFP-TurboID and NLS-GFP-TurboID controls
[1] = target: T1, full-length Rps2-TurboID (S. cerevisiae)
[2] = target: T2, Rps2(1–145).R95R97K99>A-TurboID (S. cerevisiae)
[3] = target: T3, Rps2(1–145)-TurboID (S. cerevisiae)
[4] = target: T4, full-length Rps2.R95R97K99>A-TurboID (S. cerevisiae)
[5] = target: T5, full-length Rps2-TurboID (S. …); details: remark: other sources report otherwise

binding [1] | binding [2] | binding [3] | binding [4] | binding [5] | Binder
binds | binds | binds | binds |  | B1
 |  |  |  | no binding | B2
 |  |  | no binding |  | B3
